Measurements published in patent US20160046705A1 (Amgen, published 2016).

Target: sclerostin (species not stated in the assay) (Homo sapiens (Human))
Assay: co-immunoprecipitation of LRP4 and sclerostin in the presence of antibody

Row | binding | Binder
1 | binds | 19D11 (antibody, V domains shown) VH: EVQLVESGGGLVQPGGSLRLSCAASGFTFSSYDMHWVRQATGKGLEWVSAIGTAGDTYYAGSVKGRFTISRENAKNSLYLQMNSLRVGDTAVYYCARSWGEGNYYFYYGMDVWGQGTTVTVSS VL: SYVLTQPPSVSVAPGQTARITCGGDNIGSISVHWYQQKPGQAPVLVVYDDSDRPSGIPERFSGSNSGNTATLTISWVEAGDEADYYCQVWDSSIDHPVLFGGGTKLTVL
2 | binds | 27H6 (antibody, V domains shown, also called sclerostin antibody 27H6) VH: EVQLVESGGGLVQPGGSLRLSCAASGFTFSSYSMNWVRQAPGKGLEWVSYISSSGSSIYYADSVKGRFTISRDNAKNSLYLQMNSLRDEDTAVYYCARERYYGDTPFDYWGQGTLVTVSS VL: DIVMTQTPLSLPVTPGEPASISCRSSQSLLNSVDGSTNLDWYLQKPGQSPQLLIYTLSYRASGVPDRFSGSGSGTDFTLKISRVEAEDVGVYYCMQRIEFPLTFGGGTKVEIK

These are yes or no findings as the source states them, for the method shown. In cells and extracts the contact can be indirect. Binding calls can cover weak binding; strength is not graded here.
